Reference: PMC3394733
These are yes or no findings as the source states them, for the method shown. Sequences can lack the tags named with a protein.

By UniProt entry, the sequences of proteins in these tests, tags left out. Where a name states a change or a piece, a line headed by the entry shows the natural chain unless it says otherwise.
UniProt Q04491: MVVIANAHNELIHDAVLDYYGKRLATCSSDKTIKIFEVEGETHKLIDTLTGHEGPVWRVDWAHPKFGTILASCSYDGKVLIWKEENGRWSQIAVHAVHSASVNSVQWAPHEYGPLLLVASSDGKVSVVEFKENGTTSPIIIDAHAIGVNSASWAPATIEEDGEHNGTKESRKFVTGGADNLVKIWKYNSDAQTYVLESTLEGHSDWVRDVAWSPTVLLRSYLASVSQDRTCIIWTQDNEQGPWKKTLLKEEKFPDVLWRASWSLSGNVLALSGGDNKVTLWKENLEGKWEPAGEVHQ

Molecular target: T1, GST-Pef1p (S. cerevisiae) (UniProt P53238)
T1 sequence: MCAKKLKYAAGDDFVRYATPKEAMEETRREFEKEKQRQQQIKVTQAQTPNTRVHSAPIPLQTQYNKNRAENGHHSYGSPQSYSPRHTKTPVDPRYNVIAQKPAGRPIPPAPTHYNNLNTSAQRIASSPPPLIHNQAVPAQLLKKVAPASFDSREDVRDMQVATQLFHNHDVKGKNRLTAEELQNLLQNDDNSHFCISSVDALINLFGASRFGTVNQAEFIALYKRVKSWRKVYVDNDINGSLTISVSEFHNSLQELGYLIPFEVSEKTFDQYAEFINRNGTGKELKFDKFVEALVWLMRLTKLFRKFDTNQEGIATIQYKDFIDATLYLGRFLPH
Experiment: pull-down; GST fusion or GST (40 nM) and Sec13/31p (80 nM) with 1 mM CaCl2, glutathione-Sepharose beads, 4°C 2 h, 20 mM HEPES-KOH pH 8.0, 160 mM potassium acetate, 0.1% Triton X-100; immunoblot with anti-Sec31p; both purified

binding: no binding (condition: with 1 mM CaCl2)
Substance: Sec13/31p complex (from UniProt Q04491 1-297; P38968 1-1273)
